# Data reported in publication PMC8569681, “New Pyrimidine and Pyridine Derivatives as Multitarget Cholinesterase Inhibitors: Design, Synthesis, and In Vitro and In Cellulo Evaluation” (ACS Chemical Neuroscience, 2021).
# Entries after “also recorded” stand apart in the source; their conditions may differ.
# Key:
# Format in all cases: physicochemical
# [1] = Chelation of Cu^2+, UV–vis titration and Job's plot; settings: Job's plot, MeOH
# [2] = Chelation of Fe^3+, UV–vis titration and Job's plot; settings: Job's plot; for X, mole fraction of ligand causing maximum variation of absorbance / n, number of ligand molecules per cation: MeOH; for X1, mole fraction of ligand causing maximum variation of absorbance / n1, number of ligand molecules per cation: first complex; for X2, mole fraction of ligand / n2, number of ligand molecules per cation: second complex
# [3] = Chelation of Zn^2+, UV–vis spectra; settings: UV–vis spectrum, excess of metal
Compound,"X, mole fraction of ligand causing maximum variation of absorbance [1]","n, number of ligand molecules per cation [1]","X, mole fraction of ligand causing maximum variation of absorbance [2]","n, number of ligand molecules per cation [2]",ability to chelate Zn^2+ [3],"X1, mole fraction of ligand causing maximum variation of absorbance [2]","n1, number of ligand molecules per cation [2]","X2, mole fraction of ligand [2]","n2, number of ligand molecules per cation [2]"
"COc1cc(CNCCCCCCNc2ncccn2)ccc1O [Compound 18, 2-Methoxy-4-(((6-(pyrimidin-2-ylamino)hexyl)amino)methyl)phenol]",0.70,2,0.69,2,–,–,–,–,–
"Oc1cccc(CNCCCCCCNc2ncccn2)c1 [Compound 19, 3-(((6-(Pyrimidin-2-ylamino)hexyl)amino)methyl)phenol]",0.51,1,0.68,2,–,–,–,–,–
"Oc1cccc(CNCCCCCCNc2ncccn2)c1O [Compound 20, 3-(((6-(Pyrimidin-2-ylamino)hexyl)amino)methyl)benzene-1,2-diol]",0.53,1,–,–,chelating capacity; also recorded: chelating ability,X1 = 0.53,n1 = 1,X2 = 0.80,n2 = 4
"c1ccc(CNCCCCCCNc2ccccn2)cc1 [Compound 25, N^1-Benzyl-N^6-(pyridin-2-yl)hexane-1,6-diamine]",0.44,1,–,–,–,–,–,–,–
"COc1ccccc1CNCCCCCCNc1ccccn1 [Compound 28, N^1-(2-Methoxybenzyl)-N^6-(pyridin-2-yl)hexane-1,6-diamine]",0.53,1,–,–,–,X1 = 0.53,n1 = 1,X2 = 0.74,n2 = 3
"COc1cc(CNCCCCCCNc2ccccn2)ccc1O [Compound 30, 2-Methoxy-4-(((6-(pyridin-2-ylamino)hexyl)amino)methyl)phenol]",0.50,1,–,–,–,X1 = 0.53,n1 = 1,X2 = 0.74,n2 = 3
